# Source: the supplement of paper PMC8728848
# The list shows a part of the results.
# B1: Wzz (Escherichia coli) (protein)
# chain: MRTWKFPSVRVMMRVENNNVSGQNHDPEQIDLIDLLVQLWRGKMTIIISVIVAIVLAIGYLAVAKEKWTSTAIITQPDVGQIAGYNNAMNVIYGQAAPKVSDLQETLIGRFSSAFSALAETLDNQEEPEKLTIEPSVKNQQLPLTVSYVGQTAEGAQMKLAQYIQQVDDKVNQELEKDLKDNIALGRKNLQDSLRTQEVVAQEQKDLRIRQIQEALQYANQAQVTKPQIQQTGEDITQDTLFLLGSEALESMIKHEATRPLVFSSNYYQTRQNLLDIDNLDVDKLDIHAYLYVMKPTLPIRRDSPKKAITLILAVLLGGMVGAGIVLGRNALRNYNAK
# How the values were obtained:
# Assay in all cases: glycan array binding signal (z-score within array); higher = stronger binding
# Conditions in all cases: glycan notation: IUPAC condensed, linker removed
# [1] = biological target: Gal(b1-3)GlcNAc(b1-2)Man(a1-3)[Gal(b1-3)GlcNAc(b1-2)Man(a1-6)]Man(b1-4)GlcNAc(b1-4)[Fuc(a1-6)]GlcNAc
# In short: (§1)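 Glycan array binding is given as a within-array Z-score, which can be read as non-binding when negative. The arrays, 3228 of them, came from the Consortium for Functional Glycomics database and were retained only where the protein sequence was available. Z-scores were averaged across arrays of the same protein sequence at different concentrations or buffers and across linkers.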
# [2] = biological target: Gal(b1-3)GlcNAc(b1-2)Man(a1-3)[GlcNAc(b1-4)][Gal(b1-3)GlcNAc(b1-2)Man(a1-6)]Man(b1-4)GlcNAc(b1-4)GlcNAc
# In short: as §1
# [3] = biological target: Gal(b1-3)GlcNAc(b1-2)[Gal(b1-3)GlcNAc(b1-6)]Man(a1-6)[Gal(b1-3)GlcNAc(b1-2)Man(a1-3)]Man(b1-4)GlcNAc(b1-4)GlcNAc
# In short: as §1
# [4] = biological target: Gal(b1-3)GlcNAc(b1-3)Gal(b1-3)GlcNAc
# In short: as §1
# [5] = biological target: Gal(b1-3)GlcNAc(b1-3)Gal(b1-4)Glc
# In short: as §1
# [6] = biological target: Gal(b1-3)GlcNAc(b1-3)Gal(b1-4)GlcNAc
# In short: as §1
# [7] = biological target: Gal(b1-3)GlcNAc(b1-3)Gal(b1-4)GlcNAc(b1-2)Man(a1-3)[Gal(b1-3)GlcNAc(b1-3)Gal(b1-4)GlcNAc(b1-2)Man(a1-6)]Man(b1-4)GlcNAc(b1-4)GlcNAc
# In short: as §1
# [8] = biological target: Gal(b1-3)GlcNAc(b1-3)Gal(b1-4)GlcNAc(b1-2)[Gal(b1-3)GlcNAc(b1-3)Gal(b1-4)GlcNAc(b1-6)]Man(a1-6)[Gal(b1-3)GlcNAc(b1-3)Gal(b1-4)GlcNAc(b1-2)Man(a1-3)]Man(b1-4)GlcNAc(b1-4)[Fuc(a1-6)]GlcNAc
# In short: as §1
# [9] = biological target: Gal(b1-3)GlcNAc(b1-3)Gal(b1-4)GlcNAc(b1-3)Gal(b1-4)GlcNAc(b1-2)[Gal(b1-3)GlcNAc(b1-3)Gal(b1-4)GlcNAc(b1-3)Gal(b1-4)GlcNAc(b1-6)]Man(a1-6)[Gal(b1-3)GlcNAc(b1-3)Gal(b1-4)GlcNAc(b1-3)Gal(b1-4)GlcNAc(b1-2)Man(a1-3)]Man(b1-4)GlcNAc(b1-4)[Fuc(a1-6)]GlcNAc
# In short: as §1
# [10] = biological target: Gal(b1-3)GlcNAc(b1-3)Gal(b1-4)GlcNAc(b1-6)[Gal(b1-3)GlcNAc(b1-3)]Gal(b1-4)Glc
# In short: as §1
# [11] = biological target: Gal(b1-3)GlcNAc(b1-3)Gal(b1-4)[Fuc(a1-3)]GlcNAc
# In short: as §1
# [12] = biological target: Gal(b1-3)GlcNAc(b1-3)Gal(b1-4)[Fuc(a1-3)]GlcNAc(b1-6)[Gal(b1-3)GlcNAc(b1-3)]Gal(b1-4)Glc
# In short: as §1
# [13] = biological target: Gal(b1-3)GlcNAc(b1-3)GalNAc
# In short: as §1
# [14] = biological target: Gal(b1-3)GlcNAc(b1-6)Gal(b1-4)GlcNAc
# In short: as §1
# [15] = biological target: Gal(b1-3)GlcNAc(b1-6)GalNAc
# In short: as §1
# [16] = biological target: Gal(b1-3)GlcNAc(b1-6)[Gal(b1-3)]GalNAc
# In short: as §1
# Gal(b1-3)GlcNAc6S = biological target: Gal(b1-3)GlcNAc6S
# In short: as §1
# [17] = biological target: Gal(b1-3)[Fuc(a1-4)]GlcNAc
# In short: as §1
# [18] = biological target: Gal(b1-3)[Fuc(a1-4)]GlcNAc(b1-2)Man
# In short: as §1
# [19] = biological target: Gal(b1-3)[Fuc(a1-4)]GlcNAc(b1-2)Man(a1-3)[Gal(b1-3)[Fuc(a1-4)]GlcNAc(b1-2)Man(a1-6)]Man(b1-4)GlcNAc(b1-4)[Fuc(a1-6)]GlcNAc
# In short: as §1
# [20] = biological target: Gal(b1-3)[Fuc(a1-4)]GlcNAc(b1-3)Gal(b1-3)[Fuc(a1-4)]GlcNAc
# In short: as §1
# [21] = biological target: Gal(b1-3)[Fuc(a1-4)]GlcNAc(b1-3)Gal(b1-4)[Fuc(a1-3)]GlcNAc
# In short: as §1
# [22] = biological target: Gal(b1-3)[Fuc(a1-4)]GlcNAc(b1-6)GalNAc
# In short: as §1
# [23] = biological target: Gal(b1-3)[GlcNAc(b1-6)]GalNAc
# In short: as §1
# [24] = biological target: Gal(b1-3)[Neu5Ac(a2-6)]GalNAc
# In short: as §1
# [25] = biological target: Gal(b1-3)[Neu5Ac(a2-6)]GlcNAc(b1-4)Gal(b1-4)Glc
# In short: as §1
# [26] = biological target: Gal(b1-3)[Neu5Ac(b2-6)]GalNAc
# In short: as §1
# Gal(b1-4)Gal = biological target: Gal(b1-4)Gal
# In short: as §1
# [27] = biological target: Gal(b1-4)GalNAc(a1-3)[Fuc(a1-2)]Gal(b1-4)GlcNAc
# In short: as §1
# [28] = biological target: Gal(b1-4)GalNAc(b1-3)[Fuc(a1-2)]Gal(b1-4)GlcNAc
# In short: as §1
# Gal(b1-4)Glc = biological target: Gal(b1-4)Glc
# In short: as §1
# Gal(b1-4)Glc6S = biological target: Gal(b1-4)Glc6S
# In short: as §1
# Gal(b1-4)GlcNAc = biological target: Gal(b1-4)GlcNAc
# In short: as §1
# [29] = biological target: Gal(b1-4)GlcNAc(a1-6)Gal(b1-4)GlcNAc
# In short: as §1
# Gal(b1-4)GlcNAc(b1-2)Man = biological target: Gal(b1-4)GlcNAc(b1-2)Man
# In short: as §1
# [30] = biological target: Gal(b1-4)GlcNAc(b1-2)Man(a1-3)Man(b1-4)GlcNAc(b1-4)GlcNAc
# In short: as §1
# [31] = biological target: Gal(b1-4)GlcNAc(b1-2)Man(a1-3)[Gal(b1-4)GlcNAc(b1-2)Man(a1-6)]Man(b1-4)GlcNAc(b1-4)GlcNAc
# In short: as §1
binder,measurement,setting,value
B1,glycan array binding signal (z-score),[1],-0.275
same,glycan array binding signal (z-score),[2],-0.31
same,glycan array binding signal (z-score),[3],0.086
same,glycan array binding signal (z-score),[4],0.434
same,glycan array binding signal (z-score),[5],-0.951
same,glycan array binding signal (z-score),[6],-0.99
same,glycan array binding signal (z-score),[7],-1.01
same,glycan array binding signal (z-score),[8],1.03
same,glycan array binding signal (z-score),[9],0.297
same,glycan array binding signal (z-score),[10],-0.495
same,glycan array binding signal (z-score),[11],-0.217
same,glycan array binding signal (z-score),[12],-0.082
same,glycan array binding signal (z-score),[13],0.376
same,glycan array binding signal (z-score),[14],-0.626
same,glycan array binding signal (z-score),[15],0.399
same,glycan array binding signal (z-score),[16],0.334
same,glycan array binding signal (z-score),Gal(b1-3)GlcNAc6S,0.376
same,glycan array binding signal (z-score),[17],-0.53
same,glycan array binding signal (z-score),[18],2.68
same,glycan array binding signal (z-score),[19],1.53
same,glycan array binding signal (z-score),[20],-1.68
same,glycan array binding signal (z-score),[21],-0.584
same,glycan array binding signal (z-score),[22],0.701
same,glycan array binding signal (z-score),[23],-0.468
same,glycan array binding signal (z-score),[24],-0.967
same,glycan array binding signal (z-score),[25],-0.112
same,glycan array binding signal (z-score),[26],-0.409
same,glycan array binding signal (z-score),Gal(b1-4)Gal,1.14
same,glycan array binding signal (z-score),[27],-0.875
same,glycan array binding signal (z-score),[28],-0.822
same,glycan array binding signal (z-score),Gal(b1-4)Glc,-0.478
same,glycan array binding signal (z-score),Gal(b1-4)Glc6S,1.25
same,glycan array binding signal (z-score),Gal(b1-4)GlcNAc,-0.275
same,glycan array binding signal (z-score),[29],-0.711
same,glycan array binding signal (z-score),Gal(b1-4)GlcNAc(b1-2)Man,0.461
same,glycan array binding signal (z-score),[30],-0.337
same,glycan array binding signal (z-score),[31],-0.148

# Part of the list above, with tabs:
binder	measurement	setting	value
B1	glycan array binding signal (z-score)	[24]	-0.967
same	glycan array binding signal (z-score)	[25]	-0.112
same	glycan array binding signal (z-score)	[26]	-0.409
